Assay results taken from PMC7840129, “Structural basis for heme-dependent NCoR binding to the transcriptional repressor REV-ERBβ” (Science Advances, 2021).
No constants are given. Whether binding was seen depends on the method and setting. Some results given as binding are weak or reduced against the parent protein; the word gives no strength.

T1: human REV-ERBβ ligand-binding domain (residues 381 to 579) (human) (UniProt Q14995)
T1 sequence: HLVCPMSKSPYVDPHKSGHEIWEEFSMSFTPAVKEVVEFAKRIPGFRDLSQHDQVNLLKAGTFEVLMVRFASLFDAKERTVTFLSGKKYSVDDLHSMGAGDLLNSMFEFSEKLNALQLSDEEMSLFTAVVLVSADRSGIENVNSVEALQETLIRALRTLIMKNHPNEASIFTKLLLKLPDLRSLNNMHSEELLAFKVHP

B1: human REV-ERBβ ligand-binding domain (residues 381 to 579) (domain or fragment, UniProt Q14995 381-579, looked up)
chain: T1 sequence
notes: cloned into pET46; Used ligand-free (apo) or loaded with heme (a small molecule; 1.05 to 2 molar equivalents); the two states are told apart by the assays; also called REV-ERBβ LBD; LBD; source: E. coli BL21(DE3), purified (IMAC, 3C protease cleavage, size exclusion); 15N-labelled in M9 minimal media for NMR; not shown: 6xHis, N-terminal, cleaved

Key:
[1] = target: T1, human REV-ERBβ ligand-binding domain (residues 381 to 579) (human); assay: NMR titration; 2D [1H,15N]-TROSY-HSQC of 15N-labelled apo LBD (200 μM) titrated with ID1 or ID2 peptide; 298 K; 20 mM Hepes pH 7.4, 50 mM NaCl, 0.5 mM EDTA; both purified
[2] = target: T1, human REV-ERBβ ligand-binding domain (residues 381 to 579) (human); assay: NMR titration; 2D [1H,15N]-TROSY-HSQC of 15N-labelled heme-bound LBD (200 μM, 1.25 molar equivalents of heme) titrated with ID1 or ID2 peptide; 298 K; 20 mM Hepes pH 7.4, 50 mM NaCl, 0.5 mM EDTA; both purified
[3] = target: T1, human REV-ERBβ ligand-binding domain (residues 381 to 579) (human); assay: crystal structure; LBD with 2 molar equivalents of heme and 5 molar equivalents of ID1 or ID2 peptide; sitting drop, 22°C; both purified
[4] = target: T1, human REV-ERBβ ligand-binding domain (residues 381 to 579) (human); assay: cross-linking; DSSO (600 μM), 4 μM apo or heme-bound LBD alone, without RID; 25 mM Hepes pH 7.5, 50 mM NaCl, 0.5 mM TCEP; 25°C, 45 min; SDS-PAGE; both purified

binding [1]	binding [2]	binding [3]	binding [4]	Binder
binds	binds	binds	–	RTHRLITLADHICQIITQDFARN (N-terminal amidation and C-terminal acetylation (so in the source)) [NCoR ID1 peptide]
–	–	–	binds weakly	B1
